Test results reported in PubChem BioAssay AID248 (DTP/NCI, 2004).
The list shows only some results of the screen, not a fair sample: it gathers tests that were run many times, whatever their T/C, doses with no T/C, and many T/C values between a quarter and a half above the control. Further doses and runs are listed elsewhere. T/C is the treated group as % of the vehicle group. Some entries give survivors of the animals treated and no T/C: the source holds a T/C of zero for them, seemingly a mark for toxic or unscored doses. Some doses without a T/C left all or most animals alive at the check, yet need not have been tolerated: survival well below the control is almost never listed, so the zero probably covers shortened survival too. Survivors were counted at the toxicity check, usually on the fifth day, unless a day is given; later deaths do not show. Schedules are NCI's codes, read here as Q, the interval in days (D) or hours (H), X, the number of doses. Some schedules carry Z or #; the key to these is not given. Some doses were run more than once; the results are listed from low to high. For survival time, the PubChem record calls one and a half times the control and up active, and a quarter to a half above the control has no call in these data; cut-offs in other NCI protocols can differ.

System: L1210 leukemia ip in BDF1 mice, survival T/C
Test: NCI In Vivo Anticancer Drug Screen. Data for tumor model L1210 Leukemia (intraperitoneal) in B6D2F1 (BDF1) mice
Details: T/C endpoint: mean survival time, higher T/C = longer survival
[1] = dose: 2.0 mg/kg/injection, schedule: Q01DX009 (ip), vehicle: saline
[2] = dose: 400.0 mg/kg/injection, schedule: Q04DX002 (ip), vehicle: saline with Tween-80
[3] = dose: 100.0 mg/kg/injection, schedule: Q04DX002 (ip), vehicle: saline
[4] = dose: 200.0 mg/kg/injection, schedule: Q01DX001 (ip), vehicle: saline
[5] = dose: 200.0 mg/kg/injection, schedule: Q04DX002 (ip), vehicle: Klucel (hydroxypropylcellulose) (HPC)
[6] = dose: 200.0 mg/kg/injection, schedule: Q04DX002 (ip), vehicle: saline
[7] = dose: 400.0 mg/kg/injection, schedule: Q04DX002 (ip), vehicle: saline
[8] = dose: 400.0 mg/kg/injection, schedule: Q04DX003 (ip), vehicle: saline
[9] = dose: 400.0 mg/kg/injection, schedule: Q04DX003 (ip), vehicle: Klucel (hydroxypropylcellulose) (HPC)
[10] = dose: 200.0 mg/kg/injection, schedule: Q01DX009 (ip), vehicle: Klucel (hydroxypropylcellulose) (HPC)

SMILES: CCc1c(CNc2ccc(C(=O)NC(CC(=O)O)CC(=O)O)cc2)ccc2nc(N)nc(N)c12
- survivor count (dose: 0.5 mg/kg/injection, schedule: Q01DX009 (ip), vehicle: saline): 3 of 6
- T/C (dose: 1.0 mg/kg/injection, schedule: Q01DX009 (ip), vehicle: saline): 132 % of control
- T/C [1]: 148 % of control
- survivor count [1]: 6 of 6
- T/C (dose: 2.0 mg/kg/injection, schedule: Q04DX003 (ip), vehicle: saline): 128 % of control
- survivor count (dose: 3.0 mg/kg/injection, schedule: Q01DX009 (ip), vehicle: saline): 6 of 6
- survivor count (dose: 4.0 mg/kg/injection, schedule: Q01DX009 (ip), vehicle: saline): 6 of 6
- T/C (dose: 4.0 mg/kg/injection, schedule: Q04DX003 (ip), vehicle: saline): 145 % of control
- survivor count (dose: 8.0 mg/kg/injection, schedule: Q01DX009 (ip), vehicle: saline): 6 of 6
- T/C (dose: 8.0 mg/kg/injection, schedule: Q04DX003 (ip), vehicle: saline): 131 % of control
- survivor count (dose: 16.0 mg/kg/injection, schedule: Q01DX009 (ip), vehicle: saline): 4 of 6
- survivor count (dose: 16.0 mg/kg/injection, schedule: Q04DX003 (ip), vehicle: saline): 6 of 6

SMILES: O=C(O)/C=C/Sc1ccc(Cl)cc1
- survivor count [2]: 2 of 3

SMILES: N#CC(C#N)=Cc1ccccc1[N+](=O)[O-]
- survivor count (dose: 100.0 mg/kg/injection, schedule: Q01DX Z (ip), vehicle: methylcellulose (MC)): 3 of 6
- survivor count (dose: 200.0 mg/kg/injection, schedule: Q01DX Z (ip), vehicle: methylcellulose (MC)): 0 of 6

SMILES: CC(=O)OCc1ccc(O)c2ncccc12
- survivor count (dose: 300.0 mg/kg/injection, schedule: Q01DX001 (ip), vehicle: carboxymethylcellulose (CMC)): 0 of 6

SMILES: Cc1ncc(CCl)n1Cc1ccccc1
- T/C (dose: 25.0 mg/kg/injection, schedule: Q04DX002 (ip), vehicle: saline): 97, 106, 117, 128 % of control
- T/C (dose: 50.0 mg/kg/injection, schedule: Q04DX002 (ip), vehicle: saline): 90, 93, 101, 117 % of control
- survivor count (dose: 100.0 mg/kg/injection, schedule: Q04DX002 (ip), vehicle: Klucel (hydroxypropylcellulose) (HPC)): 1 of 3
- T/C [3]: 96, 97, 103, 104 % of control
- survivor count [4]: 1 of 6
- survivor count [5]: 0 of 3
- survivor count [6]: 1 of 3 and 2 of 6
- survivor count (dose: 400.0 mg/kg/injection, schedule: Q04DX002 (ip), vehicle: Klucel (hydroxypropylcellulose) (HPC)): 0 of 3
- survivor count [7]: 0 of 3 and 0 of 6
- survivor count [8]: 6 of 6

SMILES: CCOC(=O)C(=N\Nc1ccc(Cl)cc1Cl)/C(C)=N\NC(N)=S
- survivor count (dose: 150.0 mg/kg/injection, schedule: Q01DX001 (ip), vehicle: saline): 6 of 6

SMILES: c1ccc(-c2nnc3ccccn23)cc1
- survivor count (dose: 400.0 mg/kg/injection, schedule: Q01DX001 (ip), vehicle: Klucel (hydroxypropylcellulose) (HPC)): 0 of 6

SMILES: c1cc(CCCc2ccncc2)ccn1
- survivor count [3]: 2 of 3
- survivor count [6]: 2 of 3
- survivor count [7]: 0 of 3

SMILES: CN=C(NC)c1ccc(NC(=O)c2cc(OC)cc(C(=O)Nc3ccc(C(=NC)NC)cc3)c2)cc1
- survivor count (dose: 15.0 mg/kg/injection, schedule: Q01DX Z (ip), vehicle: saline): 2 of 6
- survivor count (dose: 30.0 mg/kg/injection, schedule: Q01DX Z (ip), vehicle: saline): 0 of 6
- survivor count (dose: 60.0 mg/kg/injection, schedule: Q01DX Z (ip), vehicle: saline): 0 of 6
- survivor count (dose: 120.0 mg/kg/injection, schedule: Q01DX Z (ip), vehicle: saline): 0 of 6

SMILES: CNC(=O)Oc1cccc(CN(C)C)c1
- survivor count (dose: 40.0 mg/kg/injection, schedule: Q01DX001 (ip), vehicle: saline): 1 of 4
- survivor count (dose: 80.0 mg/kg/injection, schedule: Q01DX001 (ip), vehicle: saline): 0 of 4
- survivor count (dose: 100.0 mg/kg/injection, schedule: Q01DX001 (ip), vehicle: saline): 0 of 4
- survivor count [4]: 0 of 4
- survivor count (dose: 400.0 mg/kg/injection, schedule: Q01DX001 (ip), vehicle: saline): 0 of 4

SMILES: Cn1cc(NC(=O)c2cc(NC(=O)CN=C(N)N)cn2C)cc1C(=O)NCCC(=N)N
- survivor count (dose: 25.0 mg/kg/injection, schedule: Q01DX Z (ip), vehicle: saline): 6 of 6
- survivor count (dose: 50.0 mg/kg/injection, schedule: Q01DX Z (ip), vehicle: saline): 0 of 6

SMILES: CC1=CC(C)(C)Nc2ccc(Nc3ccccc3)cc21
- survivor count (dose: 300.0 mg/kg/injection, schedule: Q01DX001 (ip), vehicle: saline): 2 of 6

SMILES: Cc1ccccc1NC(=S)N(C)C
- survivor count (dose: 200.0 mg/kg/injection, schedule: Q04DX003 (ip), vehicle: Klucel (hydroxypropylcellulose) (HPC)): 0 of 6
- survivor count [9]: 0 of 6

SMILES: [CH3][Sb]1([Br])[CH2]CC[CH2]1
- survivor count [8]: 0 of 3

SMILES: O=C(CF)N(O)c1ccc(/C=C/c2ccccc2)cc1
- survivor count (dose: 400.0 mg/kg/injection, schedule: Q01DX001 (ip), vehicle: carboxymethylcellulose (CMC)): 0 of 4

SMILES: N#CCCC(C#N)(c1ccncc1)N1CCOCC1 (stereo unspecified)
- survivor count (dose: 100.0 mg/kg/injection, schedule: Q01DX009 (ip), vehicle: saline with Tween-80): 0 of 3
- survivor count (dose: 200.0 mg/kg/injection, schedule: Q01DX009 (ip), vehicle: saline with Tween-80): 0 of 3

SMILES: ClC1=c2ccccc2=C2C(Cl)=c3ccccc3=C12
- survivor count [5]: 2 of 3

SMILES: O=C(NCc1ccc(S(=O)(=O)F)cc1)Oc1ccc([N+](=O)[O-])cc1
- survivor count (dose: 200.0 mg/kg/injection, schedule: Q01DX009 (ip), vehicle: other): 6 of 6
- survivor count (dose: 400.0 mg/kg/injection, schedule: Q01DX009 (ip), vehicle: other): 0 of 6

SMILES: CCCCNC(=S)NCCCN(C)C
- survivor count [9]: 3 of 6

SMILES: O=c1cc2oc3c(O)c(O)ccc3c3c4ccccc4c(=O)c(c1)c23
- survivor count (dose: 100.0 mg/kg/injection, schedule: Q01DX009 (ip), vehicle: saline): 3 of 6
- survivor count (dose: 200.0 mg/kg/injection, schedule: Q01DX009 (ip), vehicle: saline): 0 of 6
- survivor count [8]: 1 of 6

SMILES: Nc1nc(N)c2nc(CO)cnc2n1
- survivor count [10]: 2 of 3

SMILES: NNc1ncn[nH]1
- survivor count (dose: 100.0 mg/kg/injection, schedule: Q01DX001 (ip), vehicle: saline with Tween-80): 0 of 6
- survivor count (dose: 200.0 mg/kg/injection, schedule: Q01DX001 (ip), vehicle: saline with Tween-80): 0 of 6
- survivor count (dose: 400.0 mg/kg/injection, schedule: Q01DX001 (ip), vehicle: saline with Tween-80): 0 of 6

SMILES: CCC[CH2][Sn]([I])([CH2]I)[CH2]CCC
- survivor count (dose: 25.0 mg/kg/injection, schedule: Q04DX002 (ip), vehicle: saline with Tween-80): 0 of 3
- survivor count (dose: 100.0 mg/kg/injection, schedule: Q04DX002 (ip), vehicle: saline with Tween-80): 0 of 3
- survivor count (dose: 200.0 mg/kg/injection, schedule: Q04DX002 (ip), vehicle: saline with Tween-80): 0 of 3
- survivor count [2]: 0 of 3

SMILES: O=C(Nc1cc(Cl)cc2c1-c1c(Cl)cc(Cl)cc1C2)C(Cl)Cl
- survivor count [10]: 1 of 6
- survivor count (dose: 400.0 mg/kg/injection, schedule: Q01DX009 (ip), vehicle: Klucel (hydroxypropylcellulose) (HPC)): 0 of 6
